Data as given in PubChem BioAssay AID686938 (Drosophila RNAi Screening Center, 2013)
The deposit covers about 23,000 reagents; this is an unselected part of those with a known target gene and a result. Over the whole deposit, 75 (0.33%) are marked active. 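Raw plate signals without normalisation; calls rest on plate z-scores that were not deposited; ratio present for only 364 wells.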 Entries without a mark were called inactive. Reagent sequences are not shown. Not given: the dose of the treatment.

Purpose: 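Knock-downs reducing store-operated calcium influx in Drosophila cells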 (primary screen)
Cell system: Drosophila S2R+ cells
Reagent: long dsRNA against Drosophila genes, about 0.25 µg dsRNA per well, roughly 10,000 cells
Duration: 5 days of knock-down before the calcium assay
Challenge: thapsigargin (SERCA pump blocker) to empty calcium stores; entry signal taken 4 min after adding it
Measured: 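Duplicate raw fluo-4 intensities per well from a plate reader, at rest and four minutes after thapsigargin emptied calcium stores; entry-to-rest ratio filled for only some wells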
Scale: calcium entry signal: higher = stronger calcium signal after store depletion; resting calcium signal: higher = higher resting calcium signal
Units: calcium entry signal in fluorescence units; resting calcium signal in fluorescence units
Rule for the call: 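Hit if the duplicate-averaged plate z-score for entry over resting signal is under −3; wells with weak total dye signal (Fmax z < −2) or more than 5 off-targets removed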
Meaning of the calls: active = strongly reduced calcium entry; inactive = no strong reduction

What did the screen give for shps [DRSC14614]?
calcium entry signal, replicate 1: 3.60e7; calcium entry signal, replicate 2: 6.87e7; resting calcium signal, replicate 1: 2.06e7; resting calcium signal, replicate 2: 2.82e7

For CG5157 [DRSC10488], how do the results read?
calcium entry signal, replicate 1: 3.51e7; calcium entry signal, replicate 2: 5.18e7; resting calcium signal, replicate 1: 1.74e7; resting calcium signal, replicate 2: 1.93e7

With GstE3 [DRSC06673], what does the deposit list?
calcium entry signal, replicate 1: 5.53e7; calcium entry signal, replicate 2: 6.51e7; resting calcium signal, replicate 1: 2.31e7; resting calcium signal, replicate 2: 2.82e7

With CG14147 [DRSC10149], what does the deposit list?
calcium entry signal, replicate 1: 2.65e7; calcium entry signal, replicate 2: 2.95e7; resting calcium signal, replicate 1: 1.34e7; resting calcium signal, replicate 2: 1.29e7

What did the screen give for CG5455 [DRSC15805]?
calcium entry signal, replicate 1: 3.17e7; calcium entry signal, replicate 2: 3.22e7; resting calcium signal, replicate 1: 1.40e7; resting calcium signal, replicate 2: 1.44e7

How did the screen score TyrRS-m [DRSC04286]?
calcium entry signal, replicate 1: 4.60e7; resting calcium signal, replicate 1: 2.18e7

For CG4009 [DRSC15536], what does the deposit list?
calcium entry signal, replicate 1: 3.32e7; calcium entry signal, replicate 2: 5.50e7; resting calcium signal, replicate 1: 1.60e7; resting calcium signal, replicate 2: 5.30e7

What did the screen give for Tdh [DRSC11788]?
calcium entry signal, replicate 1: 3.98e7; calcium entry signal, replicate 2: 4.80e7; resting calcium signal, replicate 1: 1.66e7; resting calcium signal, replicate 2: 2.96e7

Which result is listed for Yeti [DRSC21138]?
calcium entry signal, replicate 1: 5.90e7; calcium entry signal, replicate 2: 3.91e7; resting calcium signal, replicate 1: 3.12e7; resting calcium signal, replicate 2: 2.20e7

For Cpr67Fa2 [DRSC10315], what does the deposit list?
calcium entry signal, replicate 1: 2.46e7; calcium entry signal, replicate 2: 3.29e7; resting calcium signal, replicate 1: 1.32e7; resting calcium signal, replicate 2: 1.42e7

How did the screen score jbug [DRSC03952]?
calcium entry signal, replicate 1: 3.53e7; calcium entry signal, replicate 2: 6.12e7; resting calcium signal, replicate 1: 1.59e7; resting calcium signal, replicate 2: 2.74e7

With jbug [DRSC04114], what does the deposit list?
calcium entry signal, replicate 1: 3.91e7; resting calcium signal, replicate 1: 2.07e7

With jbug [DRSC04167], what was measured?
calcium entry signal, replicate 1: 3.81e7; calcium entry signal, replicate 2: 4.85e7; resting calcium signal, replicate 1: 2.00e7; resting calcium signal, replicate 2: 2.06e7

For jbug [DRSC04388], how do the results read?
calcium entry signal, replicate 1: 3.77e7; calcium entry signal, replicate 2: 4.17e7; resting calcium signal, replicate 1: 1.94e7; resting calcium signal, replicate 2: 1.87e7

2 successive entries from above, for reference:
Cpr67Fa2 [DRSC10315]: calcium entry signal, replicate 1 = 2.46e7; calcium entry signal, replicate 2 = 3.29e7; resting calcium signal, replicate 1 = 1.32e7; resting calcium signal, replicate 2 = 1.42e7
jbug [DRSC03952]: calcium entry signal, replicate 1 = 3.53e7; calcium entry signal, replicate 2 = 6.12e7; resting calcium signal, replicate 1 = 1.59e7; resting calcium signal, replicate 2 = 2.74e7

Next results follow.
With CG31195 [DRSC13440], how do the results read?
calcium entry signal, replicate 1: 4.58e7; calcium entry signal, replicate 2: 2.99e7; resting calcium signal, replicate 1: 2.27e7; resting calcium signal, replicate 2: 1.50e7

What did the screen give for Pex12 [DRSC00622]?
calcium entry signal, replicate 1: 2.33e7; calcium entry signal, replicate 2: 3.12e7; resting calcium signal, replicate 1: 1.33e7; resting calcium signal, replicate 2: 1.54e7

For Ugt302K1 [DRSC16086], how do the results read?
calcium entry signal, replicate 1: 2.66e7; calcium entry signal, replicate 2: 2.38e7; resting calcium signal, replicate 1: 1.35e7; resting calcium signal, replicate 2: 1.24e7

For CG12539 [DRSC19470], how do the results read?
calcium entry signal, replicate 1: 3.96e7; calcium entry signal, replicate 2: 3.72e7; resting calcium signal, replicate 1: 2.18e7; resting calcium signal, replicate 2: 1.75e7

Which result is listed for CG9547 [DRSC03260]?
calcium entry signal, replicate 1: 4.61e7; resting calcium signal, replicate 1: 2.22e7

What did the screen give for meep [DRSC07948]?
calcium entry signal, replicate 1: 4.57e7; calcium entry signal, replicate 2: 4.63e7; resting calcium signal, replicate 1: 2.26e7; resting calcium signal, replicate 2: 1.98e7

For Task7 [DRSC16477], how do the results read?
calcium entry signal, replicate 1: 2.46e7; calcium entry signal, replicate 2: 2.45e7; resting calcium signal, replicate 1: 1.35e7; resting calcium signal, replicate 2: 1.40e7
